# This list was built around the results that the source calls inconclusive (neither active nor inactive); the mix of calls is not that of the screen. Potencies beside an inconclusive call are fits to weak or partial responses and may not hold up. Active and inactive are the calls of the source. Rule for the calls: active = hit-call score of the fitted dose curve at least 0.9, where 1 is the maximum; inconclusive = response in the unintended direction; inactive = score below 0.9.
# Protein sequences, listed by entry. Tags and fused reporters are not part of them. Lines headed by an entry give the natural chain unless they say otherwise; changes in a name come on top.
# UniProt P19793: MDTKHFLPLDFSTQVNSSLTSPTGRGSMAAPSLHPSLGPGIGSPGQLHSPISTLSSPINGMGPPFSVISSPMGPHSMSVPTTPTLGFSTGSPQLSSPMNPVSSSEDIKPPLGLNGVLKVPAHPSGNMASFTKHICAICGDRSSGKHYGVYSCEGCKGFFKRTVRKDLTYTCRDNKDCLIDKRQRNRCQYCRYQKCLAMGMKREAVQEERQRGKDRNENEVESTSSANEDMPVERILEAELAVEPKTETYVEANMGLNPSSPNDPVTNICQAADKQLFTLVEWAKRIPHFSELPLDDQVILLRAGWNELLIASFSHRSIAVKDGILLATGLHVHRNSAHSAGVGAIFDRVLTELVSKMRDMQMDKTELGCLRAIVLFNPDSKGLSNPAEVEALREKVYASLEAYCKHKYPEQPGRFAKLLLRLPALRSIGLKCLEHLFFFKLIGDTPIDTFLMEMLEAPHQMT
# UniProt P10828: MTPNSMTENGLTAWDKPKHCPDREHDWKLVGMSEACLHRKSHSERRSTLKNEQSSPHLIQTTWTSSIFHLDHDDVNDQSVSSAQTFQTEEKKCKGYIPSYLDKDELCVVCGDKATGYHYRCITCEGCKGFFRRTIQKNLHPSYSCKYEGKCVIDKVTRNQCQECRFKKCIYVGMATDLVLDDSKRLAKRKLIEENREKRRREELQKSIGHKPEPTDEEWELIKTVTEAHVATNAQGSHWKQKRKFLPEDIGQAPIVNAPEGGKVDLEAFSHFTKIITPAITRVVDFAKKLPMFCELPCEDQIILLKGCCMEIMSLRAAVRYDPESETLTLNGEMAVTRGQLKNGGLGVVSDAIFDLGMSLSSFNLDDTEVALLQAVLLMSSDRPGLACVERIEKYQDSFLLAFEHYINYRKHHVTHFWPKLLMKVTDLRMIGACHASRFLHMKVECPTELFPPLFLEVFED
# UniProt P10827: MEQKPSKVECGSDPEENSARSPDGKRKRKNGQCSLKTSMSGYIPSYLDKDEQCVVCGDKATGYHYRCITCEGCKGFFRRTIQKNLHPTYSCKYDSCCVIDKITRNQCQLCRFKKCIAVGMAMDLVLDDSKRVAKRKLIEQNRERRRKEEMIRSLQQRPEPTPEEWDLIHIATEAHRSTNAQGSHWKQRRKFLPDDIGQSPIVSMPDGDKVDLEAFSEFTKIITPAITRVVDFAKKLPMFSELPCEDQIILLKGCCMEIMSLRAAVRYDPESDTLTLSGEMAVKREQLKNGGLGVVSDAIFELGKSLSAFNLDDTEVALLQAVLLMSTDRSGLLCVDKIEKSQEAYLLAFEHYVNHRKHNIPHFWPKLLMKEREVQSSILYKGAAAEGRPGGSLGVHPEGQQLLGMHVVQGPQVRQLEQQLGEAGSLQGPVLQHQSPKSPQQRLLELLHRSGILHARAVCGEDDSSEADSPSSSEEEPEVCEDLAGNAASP
# UniProt P10275: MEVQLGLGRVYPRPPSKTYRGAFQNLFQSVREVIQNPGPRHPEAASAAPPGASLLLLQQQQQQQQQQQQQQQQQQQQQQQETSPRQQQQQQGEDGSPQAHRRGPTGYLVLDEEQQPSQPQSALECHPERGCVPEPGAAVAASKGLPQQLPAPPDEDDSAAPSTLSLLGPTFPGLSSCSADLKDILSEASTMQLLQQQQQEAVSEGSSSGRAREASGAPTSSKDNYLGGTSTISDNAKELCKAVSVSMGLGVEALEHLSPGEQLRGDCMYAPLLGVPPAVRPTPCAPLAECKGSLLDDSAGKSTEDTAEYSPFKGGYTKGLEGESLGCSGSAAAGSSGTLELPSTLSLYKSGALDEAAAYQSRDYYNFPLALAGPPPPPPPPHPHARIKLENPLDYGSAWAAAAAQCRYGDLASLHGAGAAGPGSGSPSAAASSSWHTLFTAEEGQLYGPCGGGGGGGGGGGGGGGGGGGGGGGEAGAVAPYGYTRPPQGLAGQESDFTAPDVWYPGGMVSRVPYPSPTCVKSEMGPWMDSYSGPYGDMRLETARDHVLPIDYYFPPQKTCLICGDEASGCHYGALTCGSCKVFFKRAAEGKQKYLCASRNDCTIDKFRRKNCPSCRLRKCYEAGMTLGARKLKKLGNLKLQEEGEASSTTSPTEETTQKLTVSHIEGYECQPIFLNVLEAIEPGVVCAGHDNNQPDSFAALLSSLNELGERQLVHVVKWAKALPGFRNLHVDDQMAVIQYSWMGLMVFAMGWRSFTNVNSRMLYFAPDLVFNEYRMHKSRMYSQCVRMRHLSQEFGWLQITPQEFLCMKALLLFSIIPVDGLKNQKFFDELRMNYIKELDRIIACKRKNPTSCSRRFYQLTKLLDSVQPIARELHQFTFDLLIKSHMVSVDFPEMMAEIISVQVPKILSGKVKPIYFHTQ
# Assays:
# [1] = TOX21_PR_LUC_Followup_Antagonist_viability: Viability Assessment in the Tox21 HEK293 Progesterone Receptor (PR) Antagonism Luciferase Follow-Up Assay (AID 2283940)
# Procedure, shortened: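 HEK293-PR-A-luc, 3,000 cells/well; 5 h at 37C/0% CO2; compound pin transfer; 16 h incubation; CellTiter-Glo ATP luminescence, signal loss = cytotoxicity.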
# [2] = TOX21_PR_LUC_Followup_Agonist_viability: Viability Assessment in the Tox21 HEK293 Progesterone Receptor (PR) Agonism Luciferase Follow-Up Assay (AID 2283941);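 note: loss of signal means cytotoxicity so actives lower viability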
# Procedure, shortened: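 Multiplexed viability endpoint of the PR agonist luciferase follow-up: HEK293-PR-A-luc cells treated 16 h at 37C, with viability scored as decrease in CellTiter-Glo ATP signal.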
# [3] = CCTE_Harrill_HTTr_CellCount_MCF7: CCTE's Cell Proliferation Assessment for the High-Throughput Transcriptomics (HTTr) Platform, Harrill Lab (AID 2284012);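 note: cells exposed to compound for six hours; intended direction is loss of nuclei count meaning fewer cells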
# Procedure, shortened: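 Cell count served as viability reporter: loss of Hoechst-stained nuclei, counted by high content imaging, marks decreased growth or survival. Exposure was 6 h in MCF-7 cells across eight concentrations, with DMSO as baseline.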
# [4] = target: Retinoic acid receptor RXR-alpha (Homo sapiens) (UniProt P19793); assay: TOX21_TR_RXR_BLA_Antagonist_Followup_ratio: Tox21 Thyroid Hormone Receptor beta Retinoid X Receptor alpha (RXRa) Antagonism Beta-lactamase (BLA) Follow-Up Assay, Ratio (AID 2283972)
# Procedure, shortened: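 Beta-lactamase reporter readout as cleaved/uncleaved substrate ratio (460:530 nm) after 2 h substrate loading at room temperature. GAL4-RXRa bla HEK293T cells were exposed 16 h at 37C to 11-point compound series; loss of signal scored against DMSO baseline.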
# THRB (gene 7068) = THRB (gene 7068) (UniProt P10828); assay: TOX21_TRB_BLA_Agonist_Followup_ratio: Tox21 Thyroid Hormone Receptor beta Agonism Beta-lactamase (BLA) Follow-Up Assay, Ratio (AID 2283954)
# Procedure, shortened: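 Agonist mode: compounds (11-point, triplicate) incubated 18 h with HEK293T cells carrying GAL4-DBD/human TRβ-LBD and UAS-β-lactamase. Blue/green (460/530 nm) FRET ratio read after 2 h CCF4-AM loading; CellTiter-Glo viability run in the same plates.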
# THRA (gene 7067) = THRA (gene 7067) (UniProt P10827); assay: TOX21_TRA_COA_Antagonist_Followup_ratio: Tox21 Thyroid Hormone Receptor alpha Antagonism through Coactivator Recruitment Follow-Up Assay, Ratio (AID 2283953)
# Procedure, shortened: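 GST-TRα LBD 2.5 nM, BSA 0.10%, + cpd; then FITC-SRC-2 peptide 200 nM + Tb-anti-GST Ab 2 nM. TR-FRET ratio 520/495 nm. Norm: DMSO = 0%, T3 = 100%.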
# [5] = target: Nucleoli Translocation, AR (gene 367) (UniProt P10275); assay: UPITT_HCI_U2OS_AR_TIF2_Nucleoli_Agonist: University of Pittsburgh U2OS Androgen Receptor-Transcriptional Intermediary Factor 2 (AR-TIF2) Agonism High Content Imaging Assay for Nucleoli Translocation (AID 2283998)
# Procedure, shortened: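 RFP-AR / GFP-TIF2 cells; cpds diluted in serum-free medium; single-point screen 20 uM final (0.2% DMSO), actives confirmed in triplicate; conc-response 0.195–50 uM final (0.5% DMSO). Readout: nucleolar red fluorescence, positive direction vs DMSO.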
# [6] = target: Ratio of Nucleoli Translocation and Cytoplasm, AR (gene 367) (UniProt P10275); assay: UPITT_HCI_U2OS_AR_TIF2_Nucleoli_Cytoplasm_Ratio_Antagonist: University of Pittsburgh U2OS Androgen Receptor-Transcriptional Intermediary Factor 2 (AR-TIF2) Antagonism High Content Imaging Assay for Ratio of Nucleoli Translocation and Cytoplasm (AID 2283999);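 note: antagonists lower the DHT-driven ratio of nucleolar to cytoplasmic red signal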
# Procedure, shortened: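 Compounds were added to U2OS cells carrying red-fluorescent AR and green-fluorescent TIF2, first at 20 uM, with hits confirmed in triplicate and titrated from 0.195 to 50 uM. Nucleolar versus cytoplasmic AR-RFP fluorescence was then quantified by imaging, with analysis relative to DHT.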
# [7] = target: Nucleoli Translocation, AR (gene 367) (UniProt P10275); assay: UPITT_HCI_U2OS_AR_TIF2_Nucleoli_Antagonist: University of Pittsburgh U2OS Androgen Receptor-Transcriptional Intermediary Factor 2 (AR-TIF2) Antagonism High Content Imaging Assay for Nucleoli Translocation (AID 2283997)
# Procedure, shortened: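 An antagonist-mode imaging screen: engineered U2OS (AR-RFP, TIF2-GFP) exposed to 20 uM compound, 0.2% DMSO. Activity reflects nucleolar red fluorescence change relative to DHT baseline.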
smiles,measurement,setting,value
CC(=O)[C@H]1CC[C@H]2[C@@H]3CC=C4C[C@@H](O)CC[C@]4(C)[C@H]3CC[C@]12C,AC50,[1],inconclusive: 46.1 µM
same,outcome,[2],inactive
same,AC50,[3],inconclusive: 50 µM
COCc1c(C(C)C)nc(C(C)C)c(/C=C/[C@@H](O)C[C@@H](O)CC(=O)O)c1-c1ccc(F)cc1,AC50,[4],inconclusive: 0.00122 µM
COC(=O)c1ccc(I)cc1S(=O)(=O)NC(=O)Nc1nc(C)nc(OC)n1,AC50,THRB (gene 7068),inconclusive: 38.3 µM
same,AC50,[3],inconclusive: 47.5 µM
Nc1nc(Cl)nc2c1ncn2[C@H]1C[C@H](O)[C@@H](CO)O1,AC50,THRA (gene 7067),inconclusive: 54.4 µM
same,AC50,[4],inconclusive: 38.3 µM
C=C1CC[C@H](O)C/C1=C/C=C1\CCC[C@]2(C)[C@@H]([C@H](C)/C=C/[C@H](C)C(C)C)CC[C@@H]12,outcome,[1],inactive
same,AC50,[2],inconclusive: 39.2 µM
Cc1cc(F)ccc1-c1cc(N2CC[C@@H](O)[C@H]2CO)ncc1N(C)C(=O)C(C)(C)c1cc(C(F)(F)F)cc(C(F)(F)F)c1,AC50,[5],active: 40.8 µM
same,AC50,[6],inconclusive: 40.8 µM
C1N2CN3CN1CN(C2)C3,AC50,[7],inconclusive: 0.00147 µM
same,AC50,[6],inconclusive: 0.0615 µM
CN(C)c1ccc(N=NS(=O)(=O)O)cc1,AC50,[5],inconclusive: 50 µM
OCCC(F)(F)C(F)(F)C(F)(F)C(F)(F)C(F)(F)C(F)(F)C(F)(F)C(F)(F)F,AC50,[7],inconclusive: 50 µM
same,AC50,[3],inconclusive: 50 µM
COc1cc(OC)c2ccc(=O)oc2c1,AC50,[5],inconclusive: 50 µM
same,outcome,[6],inactive
Nc1nc2ncc(CNc3ccc(C(=O)N[C@@H](CCC(=O)O)C(=O)O)cc3)nc2c(=O)[nH]1,AC50,[5],inconclusive: 50 µM
same,AC50,[6],inconclusive: 50 µM
CCCCCCOc1ccc(O)cc1,AC50,[5],active: 27.7 µM
OCC1CCCO1 (centres undefined),AC50,[7],inconclusive: 50 µM
same,AC50,[5],inconclusive: 50 µM
same,AC50,[6],inconclusive: 50 µM
CC1(C)C(=O)N(Br)C(=O)N1Br,outcome,[5],inactive
CCOc1ccc(NC(C)=O)cc1,outcome,[7],inactive
same,outcome,[3],inactive
C#CC(O)C(CC)CCCC (centres undefined),outcome,[5],inactive
same,AC50,[6],active: 14.8 µM
O=C(NS(=O)(=O)/C=C/c1cccs1)c1ccc(F)cc1Br,AC50,[5],inconclusive: 50 µM
same,AC50,[6],inconclusive: 50 µM
CCc1cc(Cc2cc(CC)cc(C(C)(C)C)c2O)c(O)c(C(C)(C)C)c1,AC50,[7],active: 62.2 µM
same,AC50,[5],active: 77.1 µM
same,AC50,[6],active: 50 µM
same,AC50,[3],inconclusive: 9.92 µM
Cc1ccc(O)cc1,AC50,[7],inconclusive: 1.57 µM
same,AC50,[6],inconclusive: 50 µM
COC(=O)c1cccc(C(=O)OC)c1,outcome,[5],inactive
CNC(=S)NC,AC50,[5],inconclusive: 50 µM
CCCCCCCCCC(C)=O,AC50,[7],inconclusive: 51 µM
same,AC50,[6],inconclusive: 51 µM
CC(=O)O[C@H]1C[C@@H]2CC[C@@]1(C)C2(C)C,AC50,[5],inconclusive: 50 µM
CC1COCc2cc3c(cc21)C(C)(C)C(C)C3(C)C (centres undefined),AC50,[5],inconclusive: 9.92 µM
NCCOCCOCCN,outcome,[5],inactive
CCOc1cccc(-n2cc(C(=O)N3CCN(c4cc(C(=O)O)c5ccccc5c4)CC3)nc2-c2ccc(C)cc2)c1,AC50,[5],inconclusive: 50 µM
COCCOCCOC,outcome,[5],inactive
same,AC50,[6],inconclusive: 50 µM
CC(=O)N(C)C,outcome,[7],inactive
same,AC50,[5],inconclusive: 50 µM
same,AC50,[6],inconclusive: 50 µM
CC1CCC(C(C)C)C(O)C1 (centres undefined),AC50,[5],inconclusive: 50 µM
C=CCc1cc(S(=O)(=O)c2ccc(O)c(CC=C)c2)ccc1O,AC50,[5],active: 84 µM
same,outcome,[6],inactive
COc1ccc(C)cc1N,AC50,[5],inconclusive: 50 µM
O=C1OC(c2ccc(O)cc2)(c2ccc(O)cc2)c2ccccc21,AC50,[5],active: 78.7 µM
CCCCCCCCCCCCCC(=O)OCC(O)CO (centres undefined),AC50,[7],inconclusive: 50 µM
same,AC50,[6],inconclusive: 50 µM
Oc1ccc2c(c1)-c1ccccc1C2,AC50,[5],active: 76.6 µM
same,AC50,[6],active: 7.43 µM
CC(C)(C)c1cc(O)c(C(C)(C)C)cc1O,outcome,[5],inactive
same,AC50,[6],inconclusive: 57 µM
OCc1cccc(Oc2ccccc2)c1,AC50,[5],inconclusive: 11.7 µM
CC(=O)O[C@@H]1CC2CCC1(C)C2(C)C (some centres undefined),AC50,[5],inconclusive: 50 µM
same,AC50,[6],inconclusive: 50 µM
CCCCC(CC)COC(=O)/C=C\C(=O)OCC(CC)CCCC (centres undefined),outcome,[5],inactive
Nc1ccc(N)c2c1C(=O)c1ccccc1C2=O,outcome,[5],inactive
CCc1ccc(C)nc1,AC50,[7],inconclusive: 50 µM
same,AC50,[6],inconclusive: 0.688 µM

# Reformatted tab-delimited: part of the list above
smiles	measurement	setting	value
CCCCC(CC)COC(=O)/C=C\C(=O)OCC(CC)CCCC (centres undefined)	outcome	[5]	inactive
Nc1ccc(N)c2c1C(=O)c1ccccc1C2=O	outcome	[5]	inactive
CCc1ccc(C)nc1	AC50	[7]	inconclusive: 50 µM
same	AC50	[6]	inconclusive: 0.688 µM
